Assay results published in the supplement of paper PMC7666118.
Some of the results follow.

Amino acid sequences for entries named in this document (tags omitted). A change or cut given only in a name is not applied to a line headed by its entry.
UniProt Q92520: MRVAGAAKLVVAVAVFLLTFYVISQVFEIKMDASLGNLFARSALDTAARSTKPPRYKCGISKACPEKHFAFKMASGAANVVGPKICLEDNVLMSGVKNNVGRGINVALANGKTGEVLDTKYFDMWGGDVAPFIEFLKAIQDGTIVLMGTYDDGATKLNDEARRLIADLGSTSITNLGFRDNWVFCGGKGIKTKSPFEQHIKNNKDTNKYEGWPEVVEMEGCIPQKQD
UniProt Q9UBU6: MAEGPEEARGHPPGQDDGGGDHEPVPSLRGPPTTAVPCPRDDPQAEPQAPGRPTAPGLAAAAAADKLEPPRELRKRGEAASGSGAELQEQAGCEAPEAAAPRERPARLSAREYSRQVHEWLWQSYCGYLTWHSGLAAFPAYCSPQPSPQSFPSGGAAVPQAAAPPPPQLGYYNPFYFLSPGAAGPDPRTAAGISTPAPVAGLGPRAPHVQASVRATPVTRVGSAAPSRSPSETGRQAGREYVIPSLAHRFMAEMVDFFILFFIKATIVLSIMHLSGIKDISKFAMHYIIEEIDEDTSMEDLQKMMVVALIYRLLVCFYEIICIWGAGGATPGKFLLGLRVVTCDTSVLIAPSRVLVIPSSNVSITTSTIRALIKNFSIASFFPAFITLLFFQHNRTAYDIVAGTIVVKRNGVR
UniProt Q9C073: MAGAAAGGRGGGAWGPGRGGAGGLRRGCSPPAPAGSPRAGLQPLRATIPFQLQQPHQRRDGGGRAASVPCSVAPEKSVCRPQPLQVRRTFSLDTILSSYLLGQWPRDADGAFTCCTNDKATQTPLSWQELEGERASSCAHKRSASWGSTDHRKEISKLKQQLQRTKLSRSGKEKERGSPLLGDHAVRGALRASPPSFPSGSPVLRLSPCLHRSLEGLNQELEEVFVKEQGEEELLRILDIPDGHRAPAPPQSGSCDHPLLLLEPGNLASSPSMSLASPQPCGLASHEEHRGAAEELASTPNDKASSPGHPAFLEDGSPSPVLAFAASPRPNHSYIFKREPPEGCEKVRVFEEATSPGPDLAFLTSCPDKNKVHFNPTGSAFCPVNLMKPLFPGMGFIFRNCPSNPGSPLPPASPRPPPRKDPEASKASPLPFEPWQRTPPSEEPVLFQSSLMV
UniProt O75369, whole entry: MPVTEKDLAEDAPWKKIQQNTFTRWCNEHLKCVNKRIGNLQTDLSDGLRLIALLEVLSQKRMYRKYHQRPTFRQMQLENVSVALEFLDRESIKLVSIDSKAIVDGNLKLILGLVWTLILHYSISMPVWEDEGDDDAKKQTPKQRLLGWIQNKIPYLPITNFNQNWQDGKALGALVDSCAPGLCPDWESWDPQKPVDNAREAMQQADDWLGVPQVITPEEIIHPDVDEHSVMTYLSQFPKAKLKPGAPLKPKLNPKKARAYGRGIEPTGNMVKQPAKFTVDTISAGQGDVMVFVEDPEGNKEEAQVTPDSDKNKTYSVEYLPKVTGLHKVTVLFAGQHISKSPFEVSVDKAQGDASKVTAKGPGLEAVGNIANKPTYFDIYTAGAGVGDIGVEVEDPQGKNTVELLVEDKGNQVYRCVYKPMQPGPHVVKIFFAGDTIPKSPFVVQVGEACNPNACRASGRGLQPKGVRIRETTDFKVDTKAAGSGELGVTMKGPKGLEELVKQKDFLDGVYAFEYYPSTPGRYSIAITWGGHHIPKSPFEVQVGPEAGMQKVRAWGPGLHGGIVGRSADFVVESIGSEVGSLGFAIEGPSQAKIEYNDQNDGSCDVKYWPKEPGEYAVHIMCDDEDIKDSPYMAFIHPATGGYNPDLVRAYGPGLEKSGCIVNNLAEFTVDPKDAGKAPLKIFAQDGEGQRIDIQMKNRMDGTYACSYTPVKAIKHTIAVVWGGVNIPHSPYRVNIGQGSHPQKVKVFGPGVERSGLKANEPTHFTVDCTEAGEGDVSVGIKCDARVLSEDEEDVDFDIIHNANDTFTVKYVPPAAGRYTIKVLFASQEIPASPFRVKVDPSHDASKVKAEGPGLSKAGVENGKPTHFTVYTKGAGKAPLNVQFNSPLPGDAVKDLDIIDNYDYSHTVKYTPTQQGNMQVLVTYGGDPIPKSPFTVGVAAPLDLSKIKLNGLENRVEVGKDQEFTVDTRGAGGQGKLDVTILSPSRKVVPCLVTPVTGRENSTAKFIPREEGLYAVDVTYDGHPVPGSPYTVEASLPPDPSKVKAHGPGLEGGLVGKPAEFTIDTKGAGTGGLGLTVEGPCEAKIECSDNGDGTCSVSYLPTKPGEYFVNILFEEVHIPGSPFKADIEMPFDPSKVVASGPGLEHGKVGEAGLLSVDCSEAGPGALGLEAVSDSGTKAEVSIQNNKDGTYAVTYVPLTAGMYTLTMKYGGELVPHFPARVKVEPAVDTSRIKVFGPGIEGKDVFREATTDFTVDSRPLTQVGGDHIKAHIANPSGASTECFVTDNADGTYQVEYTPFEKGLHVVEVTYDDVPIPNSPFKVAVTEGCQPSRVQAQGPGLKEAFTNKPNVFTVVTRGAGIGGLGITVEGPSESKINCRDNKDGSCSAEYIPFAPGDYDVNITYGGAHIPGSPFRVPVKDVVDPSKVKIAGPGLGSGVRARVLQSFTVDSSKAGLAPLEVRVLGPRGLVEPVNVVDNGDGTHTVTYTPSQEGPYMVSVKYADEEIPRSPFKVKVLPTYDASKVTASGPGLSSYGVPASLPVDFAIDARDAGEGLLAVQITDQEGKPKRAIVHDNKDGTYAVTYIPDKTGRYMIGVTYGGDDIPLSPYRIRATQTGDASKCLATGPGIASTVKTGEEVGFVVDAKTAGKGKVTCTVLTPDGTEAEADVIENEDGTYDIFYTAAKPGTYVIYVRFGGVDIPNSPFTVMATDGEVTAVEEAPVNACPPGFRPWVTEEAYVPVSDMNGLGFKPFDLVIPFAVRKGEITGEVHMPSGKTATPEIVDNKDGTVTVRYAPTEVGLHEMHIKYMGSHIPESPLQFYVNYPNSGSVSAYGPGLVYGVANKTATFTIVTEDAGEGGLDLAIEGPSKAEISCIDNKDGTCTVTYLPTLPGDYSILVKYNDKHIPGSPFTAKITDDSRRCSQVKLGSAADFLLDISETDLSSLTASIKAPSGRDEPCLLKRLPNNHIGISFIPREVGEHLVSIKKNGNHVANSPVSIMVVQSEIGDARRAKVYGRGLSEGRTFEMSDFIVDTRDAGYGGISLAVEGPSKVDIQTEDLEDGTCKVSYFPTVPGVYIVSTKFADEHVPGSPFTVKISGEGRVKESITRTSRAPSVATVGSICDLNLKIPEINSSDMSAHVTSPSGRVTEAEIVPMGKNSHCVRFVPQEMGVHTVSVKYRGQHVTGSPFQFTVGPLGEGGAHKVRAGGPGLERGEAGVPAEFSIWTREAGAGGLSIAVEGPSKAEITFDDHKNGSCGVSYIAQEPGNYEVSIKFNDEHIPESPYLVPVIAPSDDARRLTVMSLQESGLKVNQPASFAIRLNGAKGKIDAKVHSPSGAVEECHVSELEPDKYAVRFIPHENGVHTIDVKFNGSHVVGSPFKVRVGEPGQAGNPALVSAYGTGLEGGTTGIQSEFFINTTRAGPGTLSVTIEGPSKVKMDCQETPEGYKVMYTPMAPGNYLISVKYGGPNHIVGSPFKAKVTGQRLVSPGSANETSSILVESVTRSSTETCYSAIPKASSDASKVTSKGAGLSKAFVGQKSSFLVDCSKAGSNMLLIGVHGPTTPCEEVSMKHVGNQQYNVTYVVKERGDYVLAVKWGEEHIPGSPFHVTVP
UniProt Q15024, whole entry: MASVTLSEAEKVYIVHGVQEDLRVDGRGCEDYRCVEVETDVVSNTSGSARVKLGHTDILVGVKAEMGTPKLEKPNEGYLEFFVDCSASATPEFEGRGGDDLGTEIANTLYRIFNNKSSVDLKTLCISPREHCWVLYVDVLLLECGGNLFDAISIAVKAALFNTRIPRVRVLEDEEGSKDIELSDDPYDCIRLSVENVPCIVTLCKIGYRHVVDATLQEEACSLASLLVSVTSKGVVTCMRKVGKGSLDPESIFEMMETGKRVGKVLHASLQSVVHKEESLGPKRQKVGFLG
UniProt Q96IG2: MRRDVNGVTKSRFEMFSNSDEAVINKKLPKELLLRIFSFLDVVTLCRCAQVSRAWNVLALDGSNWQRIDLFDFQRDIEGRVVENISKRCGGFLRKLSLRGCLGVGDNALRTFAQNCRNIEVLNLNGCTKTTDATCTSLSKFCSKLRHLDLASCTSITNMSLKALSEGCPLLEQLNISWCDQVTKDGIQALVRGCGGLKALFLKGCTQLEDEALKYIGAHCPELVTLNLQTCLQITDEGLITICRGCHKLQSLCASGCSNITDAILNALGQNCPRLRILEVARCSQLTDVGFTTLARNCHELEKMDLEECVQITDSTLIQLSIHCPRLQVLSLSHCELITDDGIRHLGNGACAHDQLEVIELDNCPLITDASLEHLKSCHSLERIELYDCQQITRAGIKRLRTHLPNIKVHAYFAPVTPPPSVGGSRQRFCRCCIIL
UniProt O95571: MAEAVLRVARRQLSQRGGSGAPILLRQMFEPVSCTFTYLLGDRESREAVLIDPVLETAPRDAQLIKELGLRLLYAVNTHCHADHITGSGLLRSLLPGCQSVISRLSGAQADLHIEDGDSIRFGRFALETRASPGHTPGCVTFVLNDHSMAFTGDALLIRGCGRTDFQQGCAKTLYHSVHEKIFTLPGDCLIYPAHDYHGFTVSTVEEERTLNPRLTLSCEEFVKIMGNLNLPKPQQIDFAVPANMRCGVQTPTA
UniProt Q6P4H8: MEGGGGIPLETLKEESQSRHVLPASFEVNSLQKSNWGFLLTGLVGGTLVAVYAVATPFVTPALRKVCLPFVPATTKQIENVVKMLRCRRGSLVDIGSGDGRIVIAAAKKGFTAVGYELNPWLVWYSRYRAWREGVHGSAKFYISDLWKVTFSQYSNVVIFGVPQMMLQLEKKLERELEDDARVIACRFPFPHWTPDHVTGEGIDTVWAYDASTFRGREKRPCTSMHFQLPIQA
UniProt O43909: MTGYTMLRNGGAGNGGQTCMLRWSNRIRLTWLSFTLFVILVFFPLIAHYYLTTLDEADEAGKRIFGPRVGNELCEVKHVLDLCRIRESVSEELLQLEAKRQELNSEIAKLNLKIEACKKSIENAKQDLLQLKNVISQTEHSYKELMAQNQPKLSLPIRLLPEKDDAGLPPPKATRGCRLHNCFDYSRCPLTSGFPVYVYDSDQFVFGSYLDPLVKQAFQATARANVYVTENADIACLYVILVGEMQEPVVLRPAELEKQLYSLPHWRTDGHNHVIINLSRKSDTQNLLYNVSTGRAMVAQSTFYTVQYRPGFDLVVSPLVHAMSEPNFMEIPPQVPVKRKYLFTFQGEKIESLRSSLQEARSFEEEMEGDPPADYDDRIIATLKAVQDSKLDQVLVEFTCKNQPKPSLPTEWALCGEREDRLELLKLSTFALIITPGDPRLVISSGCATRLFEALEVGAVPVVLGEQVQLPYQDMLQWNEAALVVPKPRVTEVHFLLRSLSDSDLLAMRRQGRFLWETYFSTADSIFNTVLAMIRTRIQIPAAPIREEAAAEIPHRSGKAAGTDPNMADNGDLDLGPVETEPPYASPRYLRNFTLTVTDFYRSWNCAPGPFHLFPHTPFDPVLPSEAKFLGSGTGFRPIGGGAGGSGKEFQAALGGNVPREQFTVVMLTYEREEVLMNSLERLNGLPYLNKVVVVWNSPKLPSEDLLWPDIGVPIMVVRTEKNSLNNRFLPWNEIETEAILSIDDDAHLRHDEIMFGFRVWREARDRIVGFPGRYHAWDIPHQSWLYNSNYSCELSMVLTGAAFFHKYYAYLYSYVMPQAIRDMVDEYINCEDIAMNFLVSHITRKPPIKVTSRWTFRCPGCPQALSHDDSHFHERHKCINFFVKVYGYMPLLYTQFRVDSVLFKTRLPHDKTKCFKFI
UniProt P41212: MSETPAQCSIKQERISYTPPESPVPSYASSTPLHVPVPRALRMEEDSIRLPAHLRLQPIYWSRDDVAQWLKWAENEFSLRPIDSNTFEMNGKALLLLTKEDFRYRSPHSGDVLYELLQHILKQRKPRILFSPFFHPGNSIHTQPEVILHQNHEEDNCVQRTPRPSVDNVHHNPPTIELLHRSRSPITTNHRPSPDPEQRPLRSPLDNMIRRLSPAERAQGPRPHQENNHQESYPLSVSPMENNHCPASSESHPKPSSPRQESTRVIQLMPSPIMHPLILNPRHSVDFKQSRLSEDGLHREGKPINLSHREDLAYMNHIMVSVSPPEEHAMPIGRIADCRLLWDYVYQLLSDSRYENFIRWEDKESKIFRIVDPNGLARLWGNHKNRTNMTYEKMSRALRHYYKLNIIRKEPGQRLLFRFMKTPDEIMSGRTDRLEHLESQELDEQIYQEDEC
UniProt Q9HA64: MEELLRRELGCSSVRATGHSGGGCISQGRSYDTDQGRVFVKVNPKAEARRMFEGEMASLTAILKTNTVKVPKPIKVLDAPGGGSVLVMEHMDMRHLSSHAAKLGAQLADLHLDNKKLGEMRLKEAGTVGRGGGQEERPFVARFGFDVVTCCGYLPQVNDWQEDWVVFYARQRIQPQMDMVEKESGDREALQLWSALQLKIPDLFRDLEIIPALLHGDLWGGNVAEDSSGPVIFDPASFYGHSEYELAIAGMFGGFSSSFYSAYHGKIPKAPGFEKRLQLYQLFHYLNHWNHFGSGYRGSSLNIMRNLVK

Compound: COc1ccc(Cn2ccc3ccc(C(=O)NO)cc32)cc1
Assay: dose-dependent thermal stabilisation call (2D-TPP, DLPTP, 10% FDR) (binary (1 = stabilised)); higher = stabilised by the compound
Details: system: HL-60 intact cells; concentration range 0.04-10 µM

| Target | dose-dependent thermal stabilisation call |
| --- | --- |
| FUK (UniProt Q8N0W3) | inactive: 0 |
| FAM78A (UniProt Q5JUQ0) | inactive: 0 |
| EXOSC6 (UniProt Q5RKV6) | inactive: 0 |
| FOXRED1 (UniProt Q96CU9) | inactive: 0 |
| FAM3C (UniProt Q92520) | inactive: 0 |
| FAM8A1 (UniProt Q9UBU6) | inactive: 0 |
| FUBP3 (UniProt Q96I24) | inactive: 0 |
| FAM134C (UniProt Q86VR2) | inactive: 0 |
| FAM117A (UniProt Q9C073) | inactive: 0 |
| FLNB (UniProt O75369) | inactive: 0 |
| FES (UniProt P07332) | inactive: 0 |
| GANAB (UniProt Q14697) | inactive: 0 |
| FADS2 (UniProt O95864) | inactive: 0 |
| FAM118B (UniProt Q9BPY3) | inactive: 0 |
| ESPL1 (UniProt Q14674) | inactive: 0 |
| FBXO30 (UniProt Q8TB52) | inactive: 0 |
| FAM96A (UniProt Q9H5X1) | inactive: 0 |
| EXOSC7 (UniProt Q15024) | inactive: 0 |
| GATAD2B (UniProt Q8WXI9) | inactive: 0 |

| Target | dose-dependent thermal stabilisation call |
| --- | --- |
| FBXL20 (UniProt Q96IG2) | inactive: 0 |
| GALK1 (UniProt P51570) | inactive: 0 |
| ETHE1 (UniProt O95571) | inactive: 0 |
| FBXL11 (UniProt Q9Y2K7) | inactive: 0 |
| FCHO1 (UniProt O14526) | inactive: 0 |
| FPGT (UniProt O14772) | inactive: 0 |
| FAR1 (UniProt Q8WVX9) | inactive: 0 |
| EXOC3 (UniProt O60645) | inactive: 0 |
| FNTA (UniProt P49354) | inactive: 0 |
| FAM173B (UniProt Q6P4H8) | inactive: 0 |
| FUSIP1 (UniProt O75494) | inactive: 0 |
| EXTL3 (UniProt O43909) | inactive: 0 |
| FAM129A (UniProt Q9BZQ8) | inactive: 0 |
| FBXW2 (UniProt Q9UKT8) | inactive: 0 |
| ETV6 (UniProt P41212) | inactive: 0 |
| FN3KRP (UniProt Q9HA64) | inactive: 0 |
| FASN (UniProt P49327) | inactive: 0 |
| GCAT (UniProt O75600) | inactive: 0 |
| EXOSC8 (UniProt Q96B26) | inactive: 0 |

Reprinted from the results shown (nine entries):

| Target | dose-dependent thermal stabilisation call |
| --- | --- |
| FBXL20 (UniProt Q96IG2) | inactive: 0 |
| GALK1 (UniProt P51570) | inactive: 0 |
| ETHE1 (UniProt O95571) | inactive: 0 |
| FBXL11 (UniProt Q9Y2K7) | inactive: 0 |
| FCHO1 (UniProt O14526) | inactive: 0 |
| FPGT (UniProt O14772) | inactive: 0 |
| FAR1 (UniProt Q8WVX9) | inactive: 0 |
| EXOC3 (UniProt O60645) | inactive: 0 |
| FNTA (UniProt P49354) | inactive: 0 |
